Measured values reported in PubChem BioAssay AID720504 (National Center for Advancing Translational Sciences (NCATS), 2013).
The campaign covered roughly 360,000 compounds. About 10,000 (2.8%) were called active. The inconclusive results got no clear call from the source; some entries with a clear call stand among them for comparison. Calls come from the whole dose curve; as a rule, active = well fitted inhibition curve with a large enough effect; inconclusive = small, poorly fitted or top-dose-only effect; inactive = flat fitted curve, though single readings scatter. A potency beside an inconclusive call is a rough fit, not a confirmed value.

Protein sequences, listed by entry. Tags and fused reporters are not part of them.
UniProt P53350, whole entry, looked up: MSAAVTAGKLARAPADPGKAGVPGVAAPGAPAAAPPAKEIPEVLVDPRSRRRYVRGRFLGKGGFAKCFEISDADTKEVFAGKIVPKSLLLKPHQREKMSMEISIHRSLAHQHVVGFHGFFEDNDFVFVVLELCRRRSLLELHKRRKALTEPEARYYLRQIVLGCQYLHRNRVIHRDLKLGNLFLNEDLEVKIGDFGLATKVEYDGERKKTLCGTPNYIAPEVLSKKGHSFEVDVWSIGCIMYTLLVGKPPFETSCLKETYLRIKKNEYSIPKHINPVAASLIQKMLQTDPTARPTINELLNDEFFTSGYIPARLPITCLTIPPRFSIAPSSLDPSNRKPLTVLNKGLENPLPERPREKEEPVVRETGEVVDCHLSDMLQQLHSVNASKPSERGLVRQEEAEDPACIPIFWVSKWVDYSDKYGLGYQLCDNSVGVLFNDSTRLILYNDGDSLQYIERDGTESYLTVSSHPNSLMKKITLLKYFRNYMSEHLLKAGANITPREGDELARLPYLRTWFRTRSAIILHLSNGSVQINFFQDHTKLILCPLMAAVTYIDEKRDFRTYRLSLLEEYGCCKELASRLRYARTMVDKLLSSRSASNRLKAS

target: Serine/threonine-protein kinase PLK1 (Homo sapiens) (UniProt P53350); assay: qHTS for Inhibitors of PLK1-PDB (polo-like kinase 1 - polo-box domain): Primary Screen; settings: Plk1 PBD binding of FITC phosphopeptide, fluorescence polarization; note: nearly all actives have a fitted effect of over 65% in size; for max response, negative = inhibition: series mostly up to about 57 µM
% is set by controls: 0 for no effect and ±100 for the full control effect; potency is the fitted concentration of half-maximal effect.

| Compound | Potency | max response, negative = inhibition |
| --- | --- | --- |
| COc1ccc(NC(=S)N/C(=N/CS(=O)(=O)c2ccccc2)c2ccccc2)cc1 | inconclusive: 26.7 µM [inhibitor, partial curve] |  |
| CC(C)OC(=O)CSc1nnc(C2CCCCC2)n1N |  | inactive: -26.5% |
| CSc1nc2ccc(NC(=O)c3ccc(=O)[nH]c3)cc2s1 |  | inactive: -12.4% |
| COc1ccc(S(=O)(=O)n2[nH]c(=O)c(CCO)c2C)c([N+](=O)[O-])c1 | active: 13.4 µM |  |
| O=C(C=C1SCCS1)/C=C/c1ccco1 | inconclusive: 15 µM [inhibitor, partial curve, poor fit] |  |
| COc1ccc(-c2nc(S(=O)(=O)c3ccc(C)cc3)c(N3CCCC3)o2)cc1 |  | inconclusive: -30.9% [inhibitor] |
| COc1ccccc1NS(=O)(=O)c1cc(NC(C)=O)ccc1N1CCCCC1 | active: 9.47 µM |  |
| Cc1nc2ccc([N+](=O)[O-])cc2s1 | inconclusive: 37.7 µM [inhibitor, single point] |  |
| CN(C)C(=O)c1ccc2c(c1[N+](=O)[O-])C(=O)c1ccccc1C2=O |  | inactive: -4.81% |
| Cc1sc(NC(=O)C2CCCO2)c(C#N)c1C (stereo unspecified) | inconclusive: 29.9 µM [inhibitor, partial curve] |  |
| CN(C)c1ccc(C(CNC(=O)c2ccco2)N2CCCC2)cc1 (stereo unspecified) | inconclusive: 23.8 µM [inhibitor, partial curve] |  |
| COc1ccc(-n2c(SCC(=O)O)nc3sc4c(c3c2=O)CCC4)cc1 | inconclusive: 18.9 µM [inhibitor, partial curve] |  |
| Nc1ccc(-c2nnc(-c3ccc(-c4ccccc4)cc3)o2)cc1 | active: 13.4 µM |  |
| Cc1sc2nc(SCC(=O)N(CCO)CCO)nc(N)c2c1C | inconclusive: 21.2 µM [inhibitor, partial curve] |  |
| COc1ccc(NC(=S)N(CCCN2CCOCC2)Cc2cn(C)c3ccccc23)cc1 | inconclusive: 26.7 µM [inhibitor, partial curve] |  |
| Cc1ccc(/C([O-])=C(/C(=S)NCc2ccco2)[n+]2ccccc2)cc1[N+](=O)[O-] | inconclusive: 21.2 µM [inhibitor, partial curve] |  |
| O=C(N/N=C/c1ccc2ccccc2c1)c1ccc(COc2ccc3c(c2)CCC3)o1 | inconclusive: 67 µM [inhibitor, partial curve] |  |
| COc1ccc(Cl)cc1NC(=O)CN(C)C(=O)CCNC(=O)c1ccccc1OC |  | inactive: -4.04% |
| COc1ccc(-n2nc3c(c2NC(=O)C2CC2)CS(=O)C3)cc1 (stereo unspecified) |  | inactive: -14.5% |
| Cc1cc(NC(=O)CCC(=O)N(CC(C)C)C(C(=O)NC(C)(C)C)c2ccccc2Cl)no1 (stereo unspecified) |  | inactive: -2.74% |
| COc1ccc2[nH]c(=O)c(-c3nnn(-c4ccc(Cl)nc4)n3)cc2c1 | inconclusive: 21.2 µM [inhibitor, partial curve] |  |
| O=C(/C=C\c1ccccc1)Nc1ccc(NC(=O)c2ccco2)cc1 | active: 3.36 µM |  |
| CN1/C(=C/C(=O)c2nc(S(C)(=O)=O)ncc2Cl)C(C)(C)c2ccccc21 | inconclusive: 29.9 µM [inhibitor, single point] |  |

Part of the list above, as tab-separated lines:
Compound	Potency	max response, negative = inhibition
Cc1sc2nc(SCC(=O)N(CCO)CCO)nc(N)c2c1C	inconclusive: 21.2 µM [inhibitor, partial curve]	
COc1ccc(NC(=S)N(CCCN2CCOCC2)Cc2cn(C)c3ccccc23)cc1	inconclusive: 26.7 µM [inhibitor, partial curve]	

More results.

| Compound | Potency | max response, negative = inhibition |
| --- | --- | --- |
| Fc1ccc(NC(=S)Nc2cccc3cnccc23)cc1 | inconclusive: 23.8 µM [inhibitor, single point] |  |
| O=C(COC(=O)c1c(Cl)ccc(Cl)c1Cl)NC1CCS(=O)(=O)C1 (stereo unspecified) |  | inactive: -1.62% |
| CC(C)(C)C1CCc2c(sc(NC(=O)c3cc(C4CC4)on3)c2C#N)C1 (stereo unspecified) | inconclusive: 26.7 µM [inhibitor, partial curve] |  |
| Cc1ccc(CNC(=O)CSc2nc(N3CCCCC3)nc(N3CCCCC3)n2)cc1 | active: 26.7 µM |  |
| O=[N+]([O-])c1cccc(SSc2cccc([N+](=O)[O-])c2)c1 | active: 0.377 µM |  |
| O=C(Oc1cccc(F)c1)c1ccc2c(=O)n3c(nc2c1)CCC3 |  | inactive: -10.3% |
| CCc1ccc(NC(=O)CCCN2C(=S)NC(C)(C)CC2C)cc1 (stereo unspecified) | inconclusive: 37.7 µM [inhibitor, partial curve] |  |
| O=C(O)c1cc([N+](=O)[O-])ccc1NCc1ccccc1 |  | inactive: -28.9% |
| O=C(CCS(=O)(=O)c1ccc(Cl)cc1)Nc1nccs1 | inconclusive: 21.2 µM [inhibitor, partial curve] |  |
| CCCN1CCC(NC(=S)Nc2ccc(S(N)(=O)=O)cc2)CC1 |  | inactive: -10% |
| Cc1ccccc1CNC1CCCCC1 | inconclusive: 37.7 µM [inhibitor, single point] |  |
| Oc1c(C(Nc2cccc(C(F)(F)F)c2)c2ccncc2)ccc2cccnc12 (stereo unspecified) |  | inconclusive: -30.3% [inhibitor] |
| COCCSc1ccccc1C(=O)Nc1cccnc1 |  | inactive: -5% |
| Cc1cc(C(=O)Oc2cccnc2)ccc1[N+](=O)[O-] | inconclusive: 21.2 µM [inhibitor, single point] |  |
| O=C1CN(S(=O)(=O)c2cccc(Cl)c2Cl)c2ccccc2N1 | inconclusive: 16.8 µM [inhibitor, partial curve] |  |
| COc1ccccc1OCCCOc1cccc(/C=C2\SC(=O)NC2=O)c1 | active: 21.2 µM |  |
| O=[N+]([O-])c1cc(Br)c(O)c(/C=N/Nc2nc3ccccc3s2)c1 | inconclusive: 16.8 µM [inhibitor, partial curve] |  |
| O=C(Nc1ccc(F)cc1F)N1CCCC(c2nc(-c3ccc(F)cc3)no2)C1 (stereo unspecified) | active: 11.9 µM |  |
| C=C1CCN(c2ccc(C(=O)O)cc2[N+](=O)[O-])CC1 | inconclusive: 37.7 µM [inhibitor, single point] |  |
| CC(C)Nc1ncnc2c1ncn2[C@H]1CN(Cc2ccc(-c3ccccc3)cc2)C[C@@H](CO)O1 |  | inactive: -6.24% |
| Cc1cccc(NS(=O)(=O)c2ccc(Oc3ccccc3)cc2)n1 | inconclusive: 23.8 µM [inhibitor, partial curve] |  |
| CC(C)(C)[C@H]1COC(=O)CCC/C=C/C[C@H](CC(=O)NCCO)C(=O)N1 |  | inactive: -8.97% |
| CCOC(=O)Cn1c(CCC(=O)O)ccc1-c1ccc(F)cc1 | inconclusive: 18.9 µM [inhibitor, partial curve] |  |
